# Measurements published in paper PMC5996148.
# Values joined by “and” are separate entries in the source; they are usually repeats but may differ in a detail not shown here. Equal entries are not always repeated. Some of the results follow. For some assays here: The source does not settle which construct or isoform was used.
# Legend:
# Test in all cases: protein microarray (ProtoArray v5.0), streptavidin-Alexa Fluor 647
# Conditions in all cases: 3'-biotin; 20 mM Tris (pH 7.5), 5 mM MgCl2, 100 mM KCl, 0.1% Tween-20, A/T-rich and random oligonucleotide blockers; temperature not stated; high values mean tight binding
# [1] = system: POLE3 (human)
# [2] = system: POLR2F (human)
# [3] = system: POLR2H (human)
# [4] = system: POLR2I (human)
# [5] = system: PPAP2B (human)
# [6] = system: PPARG (human)
# [7] = system: PPBP (human)
# [8] = system: PPCDC (human)
# [9] = system: PPM1A (human)
# [10] = system: PPM1H (human)
# [11] = system: PPM1M (human)
# [12] = system: PPP1R1C (human)
# [13] = system: PPP1R2 (human)
# [14] = system: PPP1R3C (human)
# [15] = system: PPP2R1B (human)
# [16] = system: PPP2R2C (human)
# [17] = system: PPP2R4 (human)
# [18] = system: PPP2R5B (human)
# [19] = system: PPP3R2 (human)
# [20] = molecular target: T1, PPT1 (UniProt P50897)
# T1 sequence: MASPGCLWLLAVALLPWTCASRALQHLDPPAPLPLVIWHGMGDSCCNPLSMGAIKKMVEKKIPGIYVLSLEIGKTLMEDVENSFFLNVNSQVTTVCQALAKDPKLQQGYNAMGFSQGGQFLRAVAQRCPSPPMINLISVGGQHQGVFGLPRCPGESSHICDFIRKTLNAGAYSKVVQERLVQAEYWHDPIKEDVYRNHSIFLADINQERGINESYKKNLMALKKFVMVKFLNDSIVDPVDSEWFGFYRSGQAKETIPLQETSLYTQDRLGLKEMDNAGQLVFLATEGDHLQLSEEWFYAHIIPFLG
sequence,measurement,setting,value
GGGAGGCTGAGGCAGG [G4-1 biotinylated (PQS2)],binding signal,[1],-0.352 z-score
same,binding signal,[2],-0.284 z-score
same,binding signal,[3],-0.308 z-score
same,binding signal,[4],-0.316 z-score
same,binding signal,[5],-0.329 z-score
same,binding signal,[6],-0.3 z-score
same,binding signal,[7],-0.261 z-score
same,binding signal,[8],-0.326 z-score
same,binding signal,[9],-0.33 z-score
same,binding signal,[10],-0.288 z-score
same,binding signal,[11],-0.302 z-score
same,binding signal,[12],-0.29 z-score
same,binding signal,[13],-0.339 z-score
same,binding signal,[14],-0.314 z-score
same,binding signal,[15],-0.32 z-score
same,binding signal,[16],-0.348 z-score
same,binding signal,[17],-0.324 z-score and -0.274 z-score
same,binding signal,[18],-0.34 z-score
same,binding signal,[19],-0.338 z-score
same,binding signal,[20],-0.33 z-score
